Assay results published in patent publication US20040105855A1 (Bristol-Myers Squibb, published 2004).
Results are given in words; binding and its absence hold for the method and conditions named. Some binding calls cover weakened binding; strength is not graded here.

Molecular target: hu4-1BBIg fusion protein (extracellular domain of H4-1BB fused to the constant domains of a human IgG1 antibody), immobilized on the BIAcore sensorchip (human) (UniProt Q07011+P01857)
Assay: SPR BIAcore 3000, immobilized H4-1BB

binding: binds
B1: hu39E3.G4 (humanized 39E3, IgG4) (antibody, V domains shown)
VH: EVQLVESGGGLVQPGGSLRLSCAASGFTFSDYWMSWVRQAPGKGLEWVADIKNDGSYTNYAPSLTNRFTISRDNAKNSLYLQMNSLRAEDTAVYYCARELTGTWGQGTMVTVSS
VL: DIVMTQSPDSLAVSLGERATINCKSSQSLLSSGNQKNYLAWYQQKPGQPPKLLIYYASTRQSGVPDRFSGSGSGTDFTLTISSLQAEDVAVYYCLQYDRYPFTFGQGTKLEIKR
notes: Humanized IgG4 with a hinge mutation (after Angal et al.), made in CHO DG-44; also called humanized 39E3.G4 antibody; humanized anti-H4-1BB mAb
